The text below walks through data of article PMC4117778.

This data set has as its target human DNA polymerase beta (polβ) (Homo sapiens) (UniProt P06746). As to the kind of experiment: X-ray crystallography. As to conditions: nonhydrolyzable dTTP analog (dTTP*), open conformation, template G6 = 2'-fluoro-N7-methyl-2'-deoxyguanosine (Fm7dG), 5'-phosphate on downstream primer GTCGG, kinetics (turnover only, not listed): 50 mM Tris-HCl pH 7.5, 5 mM MgCl2, 100 mM KCl, 80 nM DNA, 37°C, recombinant protein.

Construct, isoform or probe ends are uncertain for at least one entry. At least one verdict rests on a figure or table, not on a statement of the authors.

Regarding “CCGACGTCGCATCAGC / GCTGATGCGA / GTCGG [single-nucleotide gapped DNA with templating Fm7dG (crystal)]”, the binding result was “binds” (Mg2+ (nucleotide-binding metal only), 2.5 Å) and “binds” (Mn2+ (both metals)).
